Measurements reported in PubChem BioAssay AID1224830 (NIAID, 2016)
Assay: 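Genes whose knock-down alters the TNF-alpha reporter response to LPS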 (primary screen). Cell system: human THP-1 monocytic leukaemia cells, TNF dual-luciferase reporter clone, PMA-differentiated to macrophage-like cells. Reagents: siRNA pool against human genes, 50 nM. Time to read-out: LPS for 4 h, given about 3 days after siRNA transfection. Conditions: bacterial LPS (TLR4 ligand), 10 ng/ml. Detection: 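Ratio of firefly to renilla light, scaled to the plate median and expressed as a robust z-score per replicate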. Direction: TNF reporter robust z-score: higher = stronger TNF reporter response to LPS. Active means: 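a well is active when its z-score exceeds 2.8 or falls below -1.5; control wells carry no call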.
The deposit covers about 18,000 reagents; shown is a random part of them. In the full data, about 2,900 (16%) got an active call. 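Calls are made per well; low scores hint the gene aids the LPS response, high scores that it dampens it.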 Unmarked entries are inactive. Repeated entries: four replicate wells of each siRNA pool. Reagent sequences are not shown.

gene	TNF reporter robust z-score
CFAP251 (cilia and flagella associated protein 251)	1.2
CFAP251 (cilia and flagella associated protein 251)	1.06
CFAP251 (cilia and flagella associated protein 251)	0.68
CFAP251 (cilia and flagella associated protein 251)	1.25
NOSTRIN (nitric oxide synthase trafficking)	0.05
NOSTRIN (nitric oxide synthase trafficking)	1.03
NOSTRIN (nitric oxide synthase trafficking)	0.46
NOSTRIN (nitric oxide synthase trafficking)	2.19
MSRB1 (methionine sulfoxide reductase B1)	2.3
MSRB1 (methionine sulfoxide reductase B1)	3.18 (active)
MSRB1 (methionine sulfoxide reductase B1)	1.9
MSRB1 (methionine sulfoxide reductase B1)	3.66 (active)
ASB3 (ankyrin repeat and SOCS box containing 3)	-0.06
ASB3 (ankyrin repeat and SOCS box containing 3)	4.82 (active)
ASB3 (ankyrin repeat and SOCS box containing 3)	-0.95
ASB3 (ankyrin repeat and SOCS box containing 3)	1.89
ANKRD44 (ankyrin repeat domain 44)	-0.69
ANKRD44 (ankyrin repeat domain 44)	0
ANKRD44 (ankyrin repeat domain 44)	-0.21
ANKRD44 (ankyrin repeat domain 44)	-0.09
FOLR1 (folate receptor alpha)	-0.8
FOLR1 (folate receptor alpha)	-0.31
FOLR1 (folate receptor alpha)	0.22
FOLR1 (folate receptor alpha)	-0.75
CHAT (choline O-acetyltransferase)	-0.73
CHAT (choline O-acetyltransferase)	0.65
CHAT (choline O-acetyltransferase)	3.04 (active)
CHAT (choline O-acetyltransferase)	1.67
PIGK (phosphatidylinositol glycan anchor biosynthesis class K)	-0.45
PIGK (phosphatidylinositol glycan anchor biosynthesis class K)	-0.41
PIGK (phosphatidylinositol glycan anchor biosynthesis class K)	-0.93
PIGK (phosphatidylinositol glycan anchor biosynthesis class K)	0.44
MAP2K5 (mitogen-activated protein kinase kinase 5)	4.89 (active)
MAP2K5 (mitogen-activated protein kinase kinase 5)	2.59
MAP2K5 (mitogen-activated protein kinase kinase 5)	1.1
MAP2K5 (mitogen-activated protein kinase kinase 5)	2.49
CMTM6 (CKLF like MARVEL transmembrane domain containing 6)	0.44
CMTM6 (CKLF like MARVEL transmembrane domain containing 6)	-0.65
CMTM6 (CKLF like MARVEL transmembrane domain containing 6)	-0.28
CMTM6 (CKLF like MARVEL transmembrane domain containing 6)	-0.54
HSD17B4 (hydroxysteroid 17-beta dehydrogenase 4)	-1.22
HSD17B4 (hydroxysteroid 17-beta dehydrogenase 4)	-0.4
HSD17B4 (hydroxysteroid 17-beta dehydrogenase 4)	-1.17
HSD17B4 (hydroxysteroid 17-beta dehydrogenase 4)	-0.58
LINC00518 (long independently transcribed non-coding RNA 518)	-1.29
LINC00518 (long independently transcribed non-coding RNA 518)	-0.92
LINC00518 (long independently transcribed non-coding RNA 518)	-1.62 (active)
LINC00518 (long independently transcribed non-coding RNA 518)	-0.83
PUS7L (pseudouridine synthase 7 like)	3.06 (active)
PUS7L (pseudouridine synthase 7 like)	3.82 (active)
PUS7L (pseudouridine synthase 7 like)	2.75
PUS7L (pseudouridine synthase 7 like)	-0.89
PRSS12 (serine protease 12)	-0.36
PRSS12 (serine protease 12)	0.09
PRSS12 (serine protease 12)	0.08
PRSS12 (serine protease 12)	1.95
CCDC51 (coiled-coil domain containing 51)	-0.37
CCDC51 (coiled-coil domain containing 51)	0.08
CCDC51 (coiled-coil domain containing 51)	-0.58
CCDC51 (coiled-coil domain containing 51)	0.09
L3MBTL3 (L3MBTL histone methyl-lysine binding protein 3)	1.53
L3MBTL3 (L3MBTL histone methyl-lysine binding protein 3)	0.83
L3MBTL3 (L3MBTL histone methyl-lysine binding protein 3)	-1.29
L3MBTL3 (L3MBTL histone methyl-lysine binding protein 3)	0.49
USP6NL (USP6 N-terminal like)	-0.91
USP6NL (USP6 N-terminal like)	0.07
USP6NL (USP6 N-terminal like)	-0.78
USP6NL (USP6 N-terminal like)	0.08
SPATA18 (spermatogenesis associated 18)	0.63
SPATA18 (spermatogenesis associated 18)	-0.75
SPATA18 (spermatogenesis associated 18)	-1
SPATA18 (spermatogenesis associated 18)	-0.6
HARBI1 (harbinger transposase derived 1)	0.28
HARBI1 (harbinger transposase derived 1)	1.29
HARBI1 (harbinger transposase derived 1)	0.65
HARBI1 (harbinger transposase derived 1)	1.33
CT47A2 (cancer/testis antigen family 47 member A2)	0.38
CT47A2 (cancer/testis antigen family 47 member A2)	-0.71
CT47A2 (cancer/testis antigen family 47 member A2)	-0.04
CT47A2 (cancer/testis antigen family 47 member A2)	-0.27
P2RX3 (purinergic receptor P2X 3)	-0.48
P2RX3 (purinergic receptor P2X 3)	0.16
P2RX3 (purinergic receptor P2X 3)	0.91
P2RX3 (purinergic receptor P2X 3)	0.45
CYP27B1 (cytochrome P450 family 27 subfamily B member 1)	-1.08
CYP27B1 (cytochrome P450 family 27 subfamily B member 1)	-1.28
CYP27B1 (cytochrome P450 family 27 subfamily B member 1)	-1.21
CYP27B1 (cytochrome P450 family 27 subfamily B member 1)	-0.59
DEFB104A (defensin beta 104A)	7.09 (active)
DEFB104A (defensin beta 104A)	1.05
DEFB104A (defensin beta 104A)	0.99
DEFB104A (defensin beta 104A)	1.31
RBMS1 (RNA binding motif single stranded interacting protein 1)	3.76 (active)
RBMS1 (RNA binding motif single stranded interacting protein 1)	0.33
RBMS1 (RNA binding motif single stranded interacting protein 1)	4.07 (active)
RBMS1 (RNA binding motif single stranded interacting protein 1)	1.96
NHERF2 (NHERF family PDZ scaffold protein 2)	-0.46
NHERF2 (NHERF family PDZ scaffold protein 2)	0.56
NHERF2 (NHERF family PDZ scaffold protein 2)	0.77
NHERF2 (NHERF family PDZ scaffold protein 2)	0.75
IL10RA (interleukin 10 receptor subunit alpha)	-0.96
IL10RA (interleukin 10 receptor subunit alpha)	-0.74
IL10RA (interleukin 10 receptor subunit alpha)	-0.49
IL12A (interleukin 12A)	-1.86 (active)
IL12A (interleukin 12A)	-1.32
IL12A (interleukin 12A)	-1.74 (active)
IL12A (interleukin 12A)	-1.44
SARS2 (seryl-tRNA synthetase 2, mitochondrial)	-1.59 (active)
SARS2 (seryl-tRNA synthetase 2, mitochondrial)	-0.25
SARS2 (seryl-tRNA synthetase 2, mitochondrial)	-1.46
SARS2 (seryl-tRNA synthetase 2, mitochondrial)	-0.59

Already shown: an excerpt of the list.
gene	TNF reporter robust z-score
RBMS1 (RNA binding motif single stranded interacting protein 1)	4.07 (active)
RBMS1 (RNA binding motif single stranded interacting protein 1)	1.96
NHERF2 (NHERF family PDZ scaffold protein 2)	-0.46
NHERF2 (NHERF family PDZ scaffold protein 2)	0.56
NHERF2 (NHERF family PDZ scaffold protein 2)	0.77
NHERF2 (NHERF family PDZ scaffold protein 2)	0.75
IL10RA (interleukin 10 receptor subunit alpha)	-0.96
IL10RA (interleukin 10 receptor subunit alpha)	-0.74
IL10RA (interleukin 10 receptor subunit alpha)	-0.49
IL12A (interleukin 12A)	-1.86 (active)
